Results as given in article PMC8565321.
Numbering of substitutions follows the chain as printed. Results are given in words; binding and its absence hold for the method and conditions named. In cells and extracts the contact can be indirect. Some binding calls cover weakened binding; strength is not graded here. For part of these data: Where a sequence is shown, tags or fusion partners need not be part of it.

Protein sequences, listed by entry. Tags and fused reporters are not part of them.
UniProt P54132: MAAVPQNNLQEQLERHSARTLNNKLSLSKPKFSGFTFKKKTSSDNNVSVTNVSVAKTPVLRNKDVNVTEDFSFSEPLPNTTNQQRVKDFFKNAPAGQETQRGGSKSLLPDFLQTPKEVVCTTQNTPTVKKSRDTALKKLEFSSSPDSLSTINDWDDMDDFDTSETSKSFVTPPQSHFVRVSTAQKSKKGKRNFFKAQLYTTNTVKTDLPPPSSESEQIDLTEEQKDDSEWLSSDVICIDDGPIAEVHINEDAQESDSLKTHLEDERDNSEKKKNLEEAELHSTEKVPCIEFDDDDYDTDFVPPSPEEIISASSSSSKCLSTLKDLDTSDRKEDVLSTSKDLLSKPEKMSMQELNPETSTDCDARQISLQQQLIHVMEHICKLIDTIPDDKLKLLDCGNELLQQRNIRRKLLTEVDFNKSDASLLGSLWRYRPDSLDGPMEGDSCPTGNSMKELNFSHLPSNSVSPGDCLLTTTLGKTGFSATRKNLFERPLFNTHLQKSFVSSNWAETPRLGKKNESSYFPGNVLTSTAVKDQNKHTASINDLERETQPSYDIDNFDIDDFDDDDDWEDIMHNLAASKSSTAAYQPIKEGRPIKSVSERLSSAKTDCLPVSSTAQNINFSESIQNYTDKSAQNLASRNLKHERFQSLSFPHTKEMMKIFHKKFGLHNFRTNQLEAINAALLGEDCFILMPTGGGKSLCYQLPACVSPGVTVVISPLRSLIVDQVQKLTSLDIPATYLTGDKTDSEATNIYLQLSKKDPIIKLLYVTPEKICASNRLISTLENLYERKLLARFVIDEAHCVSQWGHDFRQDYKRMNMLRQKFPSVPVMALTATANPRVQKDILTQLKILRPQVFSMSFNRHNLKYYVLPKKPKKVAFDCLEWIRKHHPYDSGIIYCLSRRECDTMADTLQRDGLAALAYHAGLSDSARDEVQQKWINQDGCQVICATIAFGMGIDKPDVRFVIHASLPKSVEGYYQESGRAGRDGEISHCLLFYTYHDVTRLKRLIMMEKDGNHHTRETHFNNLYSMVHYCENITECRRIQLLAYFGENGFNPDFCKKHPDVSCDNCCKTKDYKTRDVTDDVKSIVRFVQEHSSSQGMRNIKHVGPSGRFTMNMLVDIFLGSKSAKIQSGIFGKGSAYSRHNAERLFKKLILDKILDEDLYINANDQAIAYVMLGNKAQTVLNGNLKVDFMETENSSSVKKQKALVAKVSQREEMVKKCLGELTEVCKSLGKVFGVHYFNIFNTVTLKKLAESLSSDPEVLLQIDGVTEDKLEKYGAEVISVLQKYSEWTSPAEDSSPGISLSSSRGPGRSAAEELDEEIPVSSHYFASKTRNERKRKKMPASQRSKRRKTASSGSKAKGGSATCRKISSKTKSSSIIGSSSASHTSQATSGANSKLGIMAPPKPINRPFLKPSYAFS

Legend:
[1] = biological target: T1, HA-tagged USP37 (ubiquitin specific peptidase 37), wild type (UniProt Q86T82); experiment: co-IP; HEK293T cells expressing HA-tagged USP37 or other HA-tagged deubiquitinases (transfected, Figure 1A; stably expressing, Figure 4D); 10 uM MG132 for 4 h; in Figure 4D with or without cisplatin (3 umol/l, 16 h); IP with HA antibody-conjugated beads, blot for endogenous BLM
T1 sequence: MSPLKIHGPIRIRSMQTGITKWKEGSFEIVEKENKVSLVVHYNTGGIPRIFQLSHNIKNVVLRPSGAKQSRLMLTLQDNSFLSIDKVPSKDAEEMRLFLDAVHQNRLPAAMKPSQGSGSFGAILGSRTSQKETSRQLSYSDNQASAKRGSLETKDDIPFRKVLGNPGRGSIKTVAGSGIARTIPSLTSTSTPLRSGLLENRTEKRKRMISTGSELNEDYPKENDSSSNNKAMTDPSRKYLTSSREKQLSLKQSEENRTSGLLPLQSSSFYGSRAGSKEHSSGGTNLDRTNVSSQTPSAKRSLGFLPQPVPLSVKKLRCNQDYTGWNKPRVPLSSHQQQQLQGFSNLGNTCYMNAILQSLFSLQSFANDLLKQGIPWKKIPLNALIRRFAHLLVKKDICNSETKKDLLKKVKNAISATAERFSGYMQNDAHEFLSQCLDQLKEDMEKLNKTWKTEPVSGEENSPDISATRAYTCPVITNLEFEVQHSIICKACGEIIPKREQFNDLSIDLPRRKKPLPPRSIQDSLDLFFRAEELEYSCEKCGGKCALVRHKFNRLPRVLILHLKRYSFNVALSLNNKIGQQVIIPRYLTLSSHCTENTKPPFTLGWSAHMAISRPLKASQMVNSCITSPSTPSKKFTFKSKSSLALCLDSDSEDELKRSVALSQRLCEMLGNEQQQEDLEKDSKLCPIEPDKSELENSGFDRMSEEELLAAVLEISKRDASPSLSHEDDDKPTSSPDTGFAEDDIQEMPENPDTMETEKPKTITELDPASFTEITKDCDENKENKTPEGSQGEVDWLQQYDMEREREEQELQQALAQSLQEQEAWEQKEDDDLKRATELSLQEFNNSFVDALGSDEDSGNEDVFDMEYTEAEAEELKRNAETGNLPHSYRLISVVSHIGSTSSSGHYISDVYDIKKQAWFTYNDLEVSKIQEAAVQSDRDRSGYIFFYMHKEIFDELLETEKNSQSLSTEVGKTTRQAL

[2] = biological target: T2, USP37 wild type, as transfected in the co-IP of Figure 5E (UniProt Q86T82); experiment: co-IP; HEK293T cells transfected with the indicated plasmids (USP37 WT or S114A); untreated or cisplatin (3 umol/l, 16 h) and MG132 for 4 h; co-IP and western blots
T2 sequence: T1 sequence

[3] = biological target: T3, USP37 S114A (phosphorylation-resistant mutant) (UniProt Q86T82); experiment: as above
T3 sequence: T1 sequence with S114A

Measured: binding

BLM (RecQ helicase BLM), endogenous (from UniProt P54132 1-1417)
binds: all assays above
